From patent publication US20250002576A1
Results are given in words; binding and its absence hold for the method and conditions named. Some results given as binding are weak or reduced against the parent protein; the word gives no strength. One block for each binder: values may come before it.

Amino acid sequences for entries named in this document (tags omitted). A change or cut given only in a name is not applied to a line headed by its entry. Chains listed by the source or under a name are the forms on record and can include a tag or linker.
hCLDN18.2 (antigen of the scFv screening) (P56856, form named): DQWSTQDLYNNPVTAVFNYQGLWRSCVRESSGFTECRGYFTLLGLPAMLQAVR

Molecular target: hCLDN18.2 (antigen of the scFv screening) (human) (UniProt P56856)
Assay: ELISA or flow cytometry, scFv screening

binding: binds
B1: YU574-D11 (scFv as screened) (scFv, V domains shown)
VH: QVQLVQSGGGLVQPGGSLRLSCAASGFTFSSYAMSWVRQAPGKGLEWVSAISGSGGSTYYADSVKGRFTISRDNSKNTLYLQMNSLRAEDTAVYYCAGGANGFDPWGQGTLVTVSS
VL: QSVLTQPPSVSGAPGQRVTISCTGSSSNIGAGYDVHWYQQLPGTAPKLLIYGNSNRPSGVPDRFSGSKSGTSASLAITGLQAEDEADYYCQSYDSSLSGLVFGGGTKLTVL

binding: binds
B2: YU577-E08 (scFv as screened) (scFv, V domains shown)
VH: QVQLVQSGAEVKKPGASVKVSCKASGYTFTSYYMHWVRQAPGQGLEWMGIINPSGGSTSYAQKFQGRVTMTRDTSTSTVYMELSSLRSEDTAVYYCATRQFDYWGQGTLVTVSS
VL: QSVLTQPPSVSAAPGQKVTISCSGSSSNIGNNYVSWYQQLPGTAPKLLIYENNKRPSGIPDRFSGSKSGTSATLGITGLQTGDEADYYCGTWDSSLSAAVFGGGTKVTVL
